PubChem BioAssay AID493246 – Drosophila RNAi Screening Center | 2011

Test: 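Genome-wide search for dsRNAs that reduce cell number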 (primary screen)
System: Drosophila Kc and S2R+ cells
Reagent: long dsRNA against Drosophila genes
Measurement: 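Cell number per well after knock-down, printed as raw plate values; calls were based on per-plate z-scores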
Direction: Kc cell number and S2R+ cell number: higher = more cells remaining
Active means: 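Active when the per-plate z-score of cell number is 3 or more in the direction of fewer cells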
In all, the deposit lists about 21,000 reagents; below is an unselected part of those with a known target gene and a result. Over the whole deposit, 429 (2%) are marked active. 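Values are raw and not normalised between plates; calls rest on per-plate z-scores that were not deposited.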 The numbers tell different reagents against one gene apart. Names joined by + are all predicted targets of the reagent. No sequences are given here. The record does not give: the amount of reagent, the time to read-out.

After knock-down of CG31075 the results were Kc cell number, rep 1 = 1.44e6; Kc cell number, rep 2 = 1.50e6; S2R+ cell number, rep 1 = 9.91e5; S2R+ cell number, rep 2 = 1.09e6; inactive.
caly showed Kc cell number, rep 1 = 1.45e6; Kc cell number, rep 2 = 1.50e6; S2R+ cell number, rep 1 = 1.18e6; S2R+ cell number, rep 2 = 1.21e6; inactive.
For Tsp26A, the values are Kc cell number, rep 1 = 1.58e6; Kc cell number, rep 2 = 1.51e6; S2R+ cell number, rep 1 = 1.26e6; S2R+ cell number, rep 2 = 1.43e6; inactive.
With knock-down of CG10931 the results were Kc cell number, rep 1 = 1.61e6; Kc cell number, rep 2 = 1.61e6; S2R+ cell number, rep 1 = 1.23e6; S2R+ cell number, rep 2 = 1.42e6; inactive.
CG11414 scored Kc cell number, rep 1 = 1.38e6; Kc cell number, rep 2 = 1.44e6; S2R+ cell number, rep 1 = 1.21e6; S2R+ cell number, rep 2 = 1.30e6; inactive.
Knock-down of eIF1A gave: Kc cell number, rep 1 = 1.28e6; Kc cell number, rep 2 = 1.28e6; S2R+ cell number, rep 1 = 6.22e5; S2R+ cell number, rep 2 = 7.42e5; inactive.
Ppa scored Kc cell number, rep 1 = 1.63e6; Kc cell number, rep 2 = 1.68e6; S2R+ cell number, rep 1 = 1.24e6; S2R+ cell number, rep 2 = 1.39e6; inactive.
Against CG12831, the entry reads Kc cell number, rep 1 = 1.69e6; Kc cell number, rep 2 = 1.87e6; S2R+ cell number, rep 1 = 1.24e6; S2R+ cell number, rep 2 = 1.39e6; inactive.
Knock-down of CG8008 came out at: Kc cell number, rep 1 = 1.15e6; Kc cell number, rep 2 = 1.38e6; S2R+ cell number, rep 1 = 9.39e5; S2R+ cell number, rep 2 = 1.00e6; inactive.
Silencing of mam #1 gave: Kc cell number, rep 1 = 6.59e5; Kc cell number, rep 2 = 6.20e5; S2R+ cell number, rep 1 = 4.27e5; S2R+ cell number, rep 2 = 5.53e5; active.
Silencing of mam #2 came out at: Kc cell number, rep 1 = 8.75e5; Kc cell number, rep 2 = 1.27e6; S2R+ cell number, rep 1 = 5.43e5; S2R+ cell number, rep 2 = 5.92e5; active.
Pka-C2 gave Kc cell number, rep 1 = 1.53e6; Kc cell number, rep 2 = 1.54e6; S2R+ cell number, rep 1 = 9.63e5; S2R+ cell number, rep 2 = 1.09e6; inactive.
With knock-down of Ir52a, the screen gave Kc cell number, rep 1 = 1.88e6; Kc cell number, rep 2 = 1.94e6; S2R+ cell number, rep 1 = 1.50e6; S2R+ cell number, rep 2 = 1.71e6; inactive.
For Hrb98DE the deposit lists Kc cell number, rep 1 = 5.61e5; S2R+ cell number, rep 1 = 8.58e5; inactive.
Depletion of PhKgamma resulted in: Kc cell number, rep 1 = 5.62e5; S2R+ cell number, rep 1 = 8.31e5; inactive.
With knock-down of Debcl, the screen gave Kc cell number, rep 1 = 1.39e6; Kc cell number, rep 2 = 1.44e6; S2R+ cell number, rep 1 = 1.18e6; S2R+ cell number, rep 2 = 1.23e6; inactive.
Against Nap1 the deposit lists Kc cell number, rep 1 = 1.36e6; Kc cell number, rep 2 = 1.36e6; S2R+ cell number, rep 1 = 9.99e5; S2R+ cell number, rep 2 = 1.02e6; inactive.
mRpS18B scored Kc cell number, rep 1 = 1.30e6; Kc cell number, rep 2 = 1.41e6; S2R+ cell number, rep 1 = 1.21e6; S2R+ cell number, rep 2 = 1.20e6; inactive.
Depletion of CG17931 + CG42446 came out at: Kc cell number, rep 1 = 1.22e6; Kc cell number, rep 2 = 1.28e6; S2R+ cell number, rep 1 = 1.16e6; S2R+ cell number, rep 2 = 1.29e6; inactive.
For CG7551, the entry reads Kc cell number, rep 1 = 1.27e6; Kc cell number, rep 2 = 1.35e6; S2R+ cell number, rep 1 = 1.28e6; S2R+ cell number, rep 2 = 1.33e6; inactive.
Knock-down of CG5721 resulted in: Kc cell number, rep 1 = 1.27e6; Kc cell number, rep 2 = 1.33e6; S2R+ cell number, rep 1 = 1.15e6; S2R+ cell number, rep 2 = 1.20e6; inactive.
